Source: PubChem BioAssay AID504467 (National Center for Advancing Translational Sciences (NCATS), 2011)
Screen size: about 330,000 compounds; about 7,700 (2.3%) were called active. This list was built around the results that the source calls inconclusive (neither active nor inactive); the mix of calls is not that of the screen. Calls come from the whole dose curve; as a rule, active = well fitted inhibition curve with a large enough effect; inconclusive = small, poorly fitted or top-dose-only effect, or effect the other way; inactive = flat fitted curve, though single readings scatter. Where the call is inconclusive, the potency comes from a doubtful curve fit.

Assay: qHTS screen for small molecules that inhibit ELG1-dependent DNA repair in human embryonic kidney (HEK293T) cells expressing luciferase-tagged ELG1; note: nearly all actives have a fitted effect of over 55% in size
Conditions: HEK293T ELG1-luciferase reporter, luminescence, 16 h, DNA damage induced by 5-fluorouridine; series mostly up to 46.1 µM
Method in brief: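 Reporter activity after DNA damage by 5-fluorouridine is monitored. Compound-treated cells incubate 16 hr at 37 °C, then ONE-Glo is added for 30 min before luminescence reading.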
Potency is the fitted concentration of half-maximal effect.

**Q.** With `O=C(O)c1cc2sccc2s1` as the compound, how does the Potency read?
**A.** inactive

**Q.** Which Potency does the source give for `Cc1ccc(/C=N/N=C2/NC(=O)CS2)o1` here?
**A.** inconclusive: 16.4 µM [activator, single point]

**Q.** Which Potency does the source give for `Cc1ccccc1NC(=O)C(=O)NCCc1c[nH]c2ccccc12` here?
**A.** inactive

**Q.** With `O=C1CCCc2cc(S(=O)(=O)N3CCC(C(=O)NCc4ccccc4)CC3)ccc2N1` as the compound, how does the Potency read?
**A.** inconclusive: 18.3 µM [inhibitor, partial curve, poor fit]

**Q.** Which Potency does the source give for `Cc1ccc2c(CN3CCCCC3)cc(=O)oc2c1C` here?
**A.** inconclusive: 20.6 µM [activator, single point]

**Q.** For `Cc1cc(Nc2ccccc2)c2c([N+](=O)[O-])c(C)cc(C)c2n1`, which Potency is on record?
**A.** inactive

**Q.** Which Potency does the source give for `FC(F)(F)c1cccc(Oc2nc(-c3ccccc3)nnc2C(F)(F)F)c1` here?
**A.** inconclusive: 32.6 µM [activator, single point]

**Q.** Which Potency does the source give for `COC(=O)[C@@]12CCCCN1[C@H](c1ccc(-c3cccc(Cl)c3)cc1)[C@H]1C(=O)N(C)C(=O)[C@H]12` here?
**A.** inactive

**Q.** With `COc1ccc(N=N/C(C(C)=O)=C(/C)O)cc1` as the compound, how does the Potency read?
**A.** inconclusive: 20.6 µM [activator, single point]

**Q.** Which Potency does the source give for `O=[N+]([O-])c1cccc(C2=NCCS2)c1` here?
**A.** inconclusive: 3.66 µM [inhibitor, partial curve, poor fit]

**Q.** For `CCOc1ccc(NS(=O)(=O)c2ccc(C(=O)NC3CCC(O)CC3)cc2)cc1` (stereo not drawn), which Potency is on record?
**A.** inactive

**Q.** For `Cc1cc(C)cc(N=C2NC(=O)/C(=C/c3cccs3)S2)c1`, which Potency is on record?
**A.** inactive

**Q.** With `CCC(=O)Nc1c2c(nn1-c1cccc(Cl)c1)CSC2` as the compound, how does the Potency read?
**A.** inactive

**Q.** With `O=C(Nc1cccc(S(=O)(=O)N2CCOCC2)c1)c1cn(-c2ccccc2)nc1-c1ccc(F)cc1` as the compound, how does the Potency read?
**A.** inconclusive: 7.31 µM [inhibitor, partial curve]

**Q.** Which Potency does the source give for `CCc1nc(C)c(-c2ccccc2)c(=O)[nH]1` here?
**A.** inactive

**Q.** Which Potency does the source give for `COc1ccc(/C=C2\SC(=S)N(CCC(=O)N3CCOCC3)C2=O)cc1` here?
**A.** inactive

**Q.** Which Potency does the source give for `CCOC(=O)N/N=C\c1ccc([N+](=O)[O-])s1` here?
**A.** active: 20.6 µM

**Q.** For `COc1cc(C(=O)OCC(=O)Nc2ccc(S(=O)(=O)N3CCCC3)cc2)cc(OC)c1OC`, which Potency is on record?
**A.** inconclusive: 29.1 µM [inhibitor, single point]

**Q.** Which Potency does the source give for `CN1CCN(Cn2cc(/C=C/C(=O)c3ccccc3)c3ccccc32)CC1` here?
**A.** inconclusive: 13 µM [activator, partial curve]

**Q.** Which Potency does the source give for `Cc1ccc(S(=O)(=O)Nc2ccc3c(c2)OCCO3)cc1` here?
**A.** inactive

**Q.** For `N#Cc1c(N)n(Cc2ccccc2)c(=O)c2cc([N+](=O)[O-])ccc12`, which Potency is on record?
**A.** inactive

**Q.** Which Potency does the source give for `COC(=O)c1cccc(Nc2nc(-c3cccnc3)nc3ccccc23)c1` here?
**A.** active: 7.3 µM

**Q.** Which Potency does the source give for `CCN(CC)CCSc1nc(O)c(-c2ccccc2)c(=O)[nH]1` here?
**A.** inactive

**Q.** Which Potency does the source give for `Cc1ccc(S(=O)(=O)N2CCCCC2CCNC(=O)C(=O)NCc2cccnc2)cc1` (stereo not drawn) here?
**A.** inactive

**Q.** For `Cc1onc(-c2ccccc2)c1C(=O)Nc1nnc(N(C)Cc2ccccc2)s1`, which Potency is on record?
**A.** inconclusive: 25.9 µM [inhibitor, single point]

**Q.** With `CCC(C)NC(=O)CCc1c(C)nc2nc(-c3cc(OC)cc(OC)c3)nn2c1C` (stereo not drawn) as the compound, how does the Potency read?
**A.** inconclusive: 20.6 µM [inhibitor, single point]

**Q.** With `O=C(Nc1ccc(O)cc1)N1CCOCC1` as the compound, how does the Potency read?
**A.** inactive

**Q.** For `CCn1ncc(Cl)c1C(=O)Nc1ccc2c(c1)CCC2`, which Potency is on record?
**A.** inconclusive: 18.3 µM [activator, partial curve]

**Q.** With `O=C1CC(/C=C/c2ccccc2)=Nc2ccccc2N1` as the compound, how does the Potency read?
**A.** inconclusive: 3.66 µM [activator, partial curve]

**Q.** For `OC(COc1ccc(Br)cc1)Cn1ccnc1` (stereo not drawn), which Potency is on record?
**A.** inactive

**Q.** With `Cc1onc(-c2ccc(Cl)cc2)c1-c1ccnc(SCC(=O)Nc2cc(Cl)cc(Cl)c2)n1` as the compound, how does the Potency read?
**A.** inconclusive: 29.1 µM [inhibitor, single point]

**Q.** With `COc1cc(/C=C(\C#N)c2nc3ccccc3o2)ccc1O` as the compound, how does the Potency read?
**A.** inconclusive: 20.6 µM [activator, partial curve]

**Q.** Which Potency does the source give for `O=C(CNc1ccccc1)N/N=C/c1ccc([N+](=O)[O-])o1` here?
**A.** inconclusive: 11.2 µM [inhibitor, single point]

**Q.** For `COc1ccc(-c2[nH]nc3c2C(c2ccncc2)C(C#N)=C(N)O3)cc1` (stereo not drawn), which Potency is on record?
**A.** inactive

**Q.** With `Fc1ccc(CNc2nc(-c3ccccc3)nc3ccccc23)cc1` as the compound, how does the Potency read?
**A.** inconclusive: 23.1 µM [inhibitor, partial curve, poor fit]

**Q.** With `Cc1ccc(-c2csc3nc(C)n(-n4cccc4)c(=O)c23)o1` as the compound, how does the Potency read?
**A.** inactive

**Q.** With `O=C(O)c1ccccc1C(=O)c1ccc(-c2ccccc2)cc1` as the compound, how does the Potency read?
**A.** inconclusive: 20.6 µM [activator, partial curve]

**Q.** With `COc1ccc(C(=O)Nc2cccc(-c3ccc4nncn4n3)c2)cc1OC` as the compound, how does the Potency read?
**A.** inactive

**Q.** With `CC(C)(C)NC(=O)CCN(/N=C/c1ccccc1F)C1=NS(=O)(=O)c2ccccc21` as the compound, how does the Potency read?
**A.** inconclusive: 29.1 µM [inhibitor, single point]

**Q.** For `CN1CCN(CC(=O)Nc2ccc(OCc3ccccc3)cc2)CC1`, which Potency is on record?
**A.** inconclusive: 20.6 µM [activator, partial curve]

**Q.** Which Potency does the source give for `CCCCCOc1ccc(C(=O)NCCC(=O)NCCCC(=O)OCC)cc1` here?
**A.** inconclusive: 20.6 µM [activator, single point]

**Q.** With `COc1ccc(C2=NN(C(=O)CSc3ncccn3)C(c3ccc(C)cc3)C2)cc1` (stereo not drawn) as the compound, how does the Potency read?
**A.** inconclusive: 29.1 µM [inhibitor, single point]

**Q.** With `Cc1cccc(NC2SC(=O)N(c3ccccc3)C2=O)c1` (stereo not drawn) as the compound, how does the Potency read?
**A.** inconclusive: 16.4 µM [activator, partial curve]

**Q.** With `CC(C)n1nccc1NC(=O)Nc1ccccc1` as the compound, how does the Potency read?
**A.** inactive

**Q.** For `O=C(N/N=C\c1ccccc1F)c1ccc(-c2ccccc2)cc1`, which Potency is on record?
**A.** inconclusive: 23.1 µM [activator, single point]

**Q.** For `CCc1c(C)nc2cc(-c3ccc(OC)c(OC)c3)nn2c1NCC1CC1`, which Potency is on record?
**A.** active: 14.6 µM

**Q.** With `O=C(NCCc1cn2ccsc2n1)C1CCCCC1` as the compound, how does the Potency read?
**A.** inconclusive: 7.31 µM [activator, partial curve, poor fit]

**Q.** For `O=C1NC2(CCCCCC2)C(=O)N1Cc1ccc([N+](=O)[O-])cc1`, which Potency is on record?
**A.** inactive

**Q.** With `CCOc1ccc(NC(=O)CSc2nc3ccsc3c(=O)n2CCC(=O)O)cc1` as the compound, how does the Potency read?
**A.** inconclusive: 25.9 µM [activator, partial curve, poor fit]

**Q.** Which Potency does the source give for `O=C(CSc1nc(C2CC2)nc2ccccc12)N1CCc2ccccc2C1` here?
**A.** inconclusive: 18.4 µM [inhibitor, single point]

**Q.** For `CCOc1ccc(N(CC(=O)NCCSCc2ccccc2)S(=O)(=O)c2ccccc2)cc1`, which Potency is on record?
**A.** inactive

**Q.** Which Potency does the source give for `COc1ccccc1NC(=O)CSc1nnc(-c2ccoc2C)o1` here?
**A.** inconclusive: 23.1 µM [activator, partial curve]

**Q.** Which Potency does the source give for `COc1cccc(CNC(=O)CC(NC(=O)c2ccccc2)c2ccccc2)c1` (stereo not drawn) here?
**A.** inactive

**Q.** Which Potency does the source give for `Cc1cc2ccccn2c1C(=O)c1nc(NCc2ccco2)ncc1Cl` here?
**A.** inconclusive: 29.1 µM [inhibitor, single point]

**Q.** With `COc1ccc2[nH]c(=O)c(CN(Cc3cccs3)Cc3nnnn3C(C)(C)C)cc2c1` as the compound, how does the Potency read?
**A.** inconclusive: 29.1 µM [inhibitor, single point]

**Q.** Which Potency does the source give for `CCC(C)(C)n1nnnc1C(c1ccccc1)N1CCc2ccccc2C1` (stereo not drawn) here?
**A.** inactive

**Q.** With `O=C(N/N=C1\CCc2ccccc21)c1ccncc1` as the compound, how does the Potency read?
**A.** inconclusive: 20.6 µM [activator, partial curve]

**Q.** With `CCCOC(=O)c1c(N)sc(C(=O)OCC)c1C` as the compound, how does the Potency read?
**A.** inconclusive: 20.6 µM [activator, partial curve]

**Q.** For `COC(=O)c1nc(-c2ccc(C)cc2)oc1N(C)C`, which Potency is on record?
**A.** inactive

**Q.** With `CC1(C)Oc2ccc3ccc(=O)oc3c2C(/C=N/O)=C1Cl` as the compound, how does the Potency read?
**A.** inconclusive: 35.5 µM [inhibitor, single point]

**Q.** For `c1ccc(Cc2nnc(-c3ccccc3)o2)cc1`, which Potency is on record?
**A.** inconclusive: 3.26 µM [activator, partial curve]

**Q.** With `CCOC(=O)[C@H]1[C@H]2COc3ccccc3[C@@H]2N2C(=O)c3cc(C)ccc3NC(=O)[C@@]12C` as the compound, how does the Potency read?
**A.** inconclusive: 3.55 µM [activator, partial curve, poor fit]

**Q.** For `COc1ccc(CNC(=O)COC(=O)c2[nH]c(C)c(C(C)=O)c2C)cc1OC`, which Potency is on record?
**A.** inconclusive: 12.6 µM [inhibitor, partial curve]

**Q.** With `Cc1ccc(Cl)cc1NC(=O)C(Cc1ccccc1)N1C(=O)C2C3CCC(C3)C2C1=O` (stereo not drawn) as the compound, how does the Potency read?
**A.** inconclusive: 16.4 µM [inhibitor, partial curve, poor fit]

**Q.** For `COc1cc(/C=C2\C(=N)N3N=C(S(C)(=O)=O)SC3=NC2=O)ccc1OS(=O)(=O)c1ccc(C)cc1`, which Potency is on record?
**A.** inconclusive: 18.3 µM [activator, partial curve, poor fit]

**Q.** With `COc1ccc(NC(=S)NC(=O)c2ccc3c(c2)OCCO3)cc1` as the compound, how does the Potency read?
**A.** inconclusive: 2.59 µM [activator, partial curve]

**Q.** With `O=C(c1cc(Cl)ccc1O)N1CCN(S(=O)(=O)Cc2ccccc2)CC1` as the compound, how does the Potency read?
**A.** inconclusive: 29.1 µM [inhibitor, single point]

**Q.** For `COC(=O)c1cc(S(=O)(=O)NCCc2ccc(Cl)cc2)c[nH]1`, which Potency is on record?
**A.** inconclusive: 20.6 µM [inhibitor, partial curve]

**Q.** Which Potency does the source give for `CC(=O)c1cccc(NC(=S)NC(=O)c2cccc(C)c2)c1` here?
**A.** inconclusive: 3.26 µM [activator, full curve]

**Q.** Which Potency does the source give for `COC(=O)c1[nH]c2ccccc2c1NC(=O)CN1CCN(C(=O)c2ccco2)CC1` here?
**A.** active: 20.6 µM

**Q.** For `COc1ccc(NS(=O)(=O)c2ccc3oc(SC)nc3c2)cc1`, which Potency is on record?
**A.** inactive

**Q.** Which Potency does the source give for `COc1ccc(OC)c(CCNC(=O)C2CCN(c3nnc(-n4cccc4)s3)CC2)c1` here?
**A.** inconclusive: 20.6 µM [inhibitor, partial curve]

**Q.** With `CC(C)(CO)NCc1cccc(OCc2ccc(Cl)cc2)c1` as the compound, how does the Potency read?
**A.** inactive
